The record followed here is publication PMC11148184.

Protein sequences, listed by entry. Tags and fused reporters are not part of them.
UniProt Q6P3S6: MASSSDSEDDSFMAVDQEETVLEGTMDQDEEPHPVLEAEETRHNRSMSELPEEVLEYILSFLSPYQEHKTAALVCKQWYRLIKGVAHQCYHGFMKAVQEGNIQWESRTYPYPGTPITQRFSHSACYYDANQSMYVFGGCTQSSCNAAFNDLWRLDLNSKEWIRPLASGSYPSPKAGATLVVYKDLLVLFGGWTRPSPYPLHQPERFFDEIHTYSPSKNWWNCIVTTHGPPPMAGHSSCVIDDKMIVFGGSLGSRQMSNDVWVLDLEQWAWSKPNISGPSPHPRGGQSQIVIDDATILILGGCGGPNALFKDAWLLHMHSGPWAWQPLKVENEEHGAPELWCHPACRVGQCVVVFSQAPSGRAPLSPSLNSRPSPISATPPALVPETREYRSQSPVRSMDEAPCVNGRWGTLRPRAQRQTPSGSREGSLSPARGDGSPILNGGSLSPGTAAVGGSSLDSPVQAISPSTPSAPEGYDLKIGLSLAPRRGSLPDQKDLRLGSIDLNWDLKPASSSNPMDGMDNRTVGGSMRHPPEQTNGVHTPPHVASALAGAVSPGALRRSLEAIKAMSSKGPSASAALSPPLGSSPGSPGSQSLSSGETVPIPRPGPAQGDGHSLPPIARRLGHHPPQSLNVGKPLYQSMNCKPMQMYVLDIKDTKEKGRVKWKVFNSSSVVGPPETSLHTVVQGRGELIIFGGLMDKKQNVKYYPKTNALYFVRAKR
UniProt Q7Z6Z7: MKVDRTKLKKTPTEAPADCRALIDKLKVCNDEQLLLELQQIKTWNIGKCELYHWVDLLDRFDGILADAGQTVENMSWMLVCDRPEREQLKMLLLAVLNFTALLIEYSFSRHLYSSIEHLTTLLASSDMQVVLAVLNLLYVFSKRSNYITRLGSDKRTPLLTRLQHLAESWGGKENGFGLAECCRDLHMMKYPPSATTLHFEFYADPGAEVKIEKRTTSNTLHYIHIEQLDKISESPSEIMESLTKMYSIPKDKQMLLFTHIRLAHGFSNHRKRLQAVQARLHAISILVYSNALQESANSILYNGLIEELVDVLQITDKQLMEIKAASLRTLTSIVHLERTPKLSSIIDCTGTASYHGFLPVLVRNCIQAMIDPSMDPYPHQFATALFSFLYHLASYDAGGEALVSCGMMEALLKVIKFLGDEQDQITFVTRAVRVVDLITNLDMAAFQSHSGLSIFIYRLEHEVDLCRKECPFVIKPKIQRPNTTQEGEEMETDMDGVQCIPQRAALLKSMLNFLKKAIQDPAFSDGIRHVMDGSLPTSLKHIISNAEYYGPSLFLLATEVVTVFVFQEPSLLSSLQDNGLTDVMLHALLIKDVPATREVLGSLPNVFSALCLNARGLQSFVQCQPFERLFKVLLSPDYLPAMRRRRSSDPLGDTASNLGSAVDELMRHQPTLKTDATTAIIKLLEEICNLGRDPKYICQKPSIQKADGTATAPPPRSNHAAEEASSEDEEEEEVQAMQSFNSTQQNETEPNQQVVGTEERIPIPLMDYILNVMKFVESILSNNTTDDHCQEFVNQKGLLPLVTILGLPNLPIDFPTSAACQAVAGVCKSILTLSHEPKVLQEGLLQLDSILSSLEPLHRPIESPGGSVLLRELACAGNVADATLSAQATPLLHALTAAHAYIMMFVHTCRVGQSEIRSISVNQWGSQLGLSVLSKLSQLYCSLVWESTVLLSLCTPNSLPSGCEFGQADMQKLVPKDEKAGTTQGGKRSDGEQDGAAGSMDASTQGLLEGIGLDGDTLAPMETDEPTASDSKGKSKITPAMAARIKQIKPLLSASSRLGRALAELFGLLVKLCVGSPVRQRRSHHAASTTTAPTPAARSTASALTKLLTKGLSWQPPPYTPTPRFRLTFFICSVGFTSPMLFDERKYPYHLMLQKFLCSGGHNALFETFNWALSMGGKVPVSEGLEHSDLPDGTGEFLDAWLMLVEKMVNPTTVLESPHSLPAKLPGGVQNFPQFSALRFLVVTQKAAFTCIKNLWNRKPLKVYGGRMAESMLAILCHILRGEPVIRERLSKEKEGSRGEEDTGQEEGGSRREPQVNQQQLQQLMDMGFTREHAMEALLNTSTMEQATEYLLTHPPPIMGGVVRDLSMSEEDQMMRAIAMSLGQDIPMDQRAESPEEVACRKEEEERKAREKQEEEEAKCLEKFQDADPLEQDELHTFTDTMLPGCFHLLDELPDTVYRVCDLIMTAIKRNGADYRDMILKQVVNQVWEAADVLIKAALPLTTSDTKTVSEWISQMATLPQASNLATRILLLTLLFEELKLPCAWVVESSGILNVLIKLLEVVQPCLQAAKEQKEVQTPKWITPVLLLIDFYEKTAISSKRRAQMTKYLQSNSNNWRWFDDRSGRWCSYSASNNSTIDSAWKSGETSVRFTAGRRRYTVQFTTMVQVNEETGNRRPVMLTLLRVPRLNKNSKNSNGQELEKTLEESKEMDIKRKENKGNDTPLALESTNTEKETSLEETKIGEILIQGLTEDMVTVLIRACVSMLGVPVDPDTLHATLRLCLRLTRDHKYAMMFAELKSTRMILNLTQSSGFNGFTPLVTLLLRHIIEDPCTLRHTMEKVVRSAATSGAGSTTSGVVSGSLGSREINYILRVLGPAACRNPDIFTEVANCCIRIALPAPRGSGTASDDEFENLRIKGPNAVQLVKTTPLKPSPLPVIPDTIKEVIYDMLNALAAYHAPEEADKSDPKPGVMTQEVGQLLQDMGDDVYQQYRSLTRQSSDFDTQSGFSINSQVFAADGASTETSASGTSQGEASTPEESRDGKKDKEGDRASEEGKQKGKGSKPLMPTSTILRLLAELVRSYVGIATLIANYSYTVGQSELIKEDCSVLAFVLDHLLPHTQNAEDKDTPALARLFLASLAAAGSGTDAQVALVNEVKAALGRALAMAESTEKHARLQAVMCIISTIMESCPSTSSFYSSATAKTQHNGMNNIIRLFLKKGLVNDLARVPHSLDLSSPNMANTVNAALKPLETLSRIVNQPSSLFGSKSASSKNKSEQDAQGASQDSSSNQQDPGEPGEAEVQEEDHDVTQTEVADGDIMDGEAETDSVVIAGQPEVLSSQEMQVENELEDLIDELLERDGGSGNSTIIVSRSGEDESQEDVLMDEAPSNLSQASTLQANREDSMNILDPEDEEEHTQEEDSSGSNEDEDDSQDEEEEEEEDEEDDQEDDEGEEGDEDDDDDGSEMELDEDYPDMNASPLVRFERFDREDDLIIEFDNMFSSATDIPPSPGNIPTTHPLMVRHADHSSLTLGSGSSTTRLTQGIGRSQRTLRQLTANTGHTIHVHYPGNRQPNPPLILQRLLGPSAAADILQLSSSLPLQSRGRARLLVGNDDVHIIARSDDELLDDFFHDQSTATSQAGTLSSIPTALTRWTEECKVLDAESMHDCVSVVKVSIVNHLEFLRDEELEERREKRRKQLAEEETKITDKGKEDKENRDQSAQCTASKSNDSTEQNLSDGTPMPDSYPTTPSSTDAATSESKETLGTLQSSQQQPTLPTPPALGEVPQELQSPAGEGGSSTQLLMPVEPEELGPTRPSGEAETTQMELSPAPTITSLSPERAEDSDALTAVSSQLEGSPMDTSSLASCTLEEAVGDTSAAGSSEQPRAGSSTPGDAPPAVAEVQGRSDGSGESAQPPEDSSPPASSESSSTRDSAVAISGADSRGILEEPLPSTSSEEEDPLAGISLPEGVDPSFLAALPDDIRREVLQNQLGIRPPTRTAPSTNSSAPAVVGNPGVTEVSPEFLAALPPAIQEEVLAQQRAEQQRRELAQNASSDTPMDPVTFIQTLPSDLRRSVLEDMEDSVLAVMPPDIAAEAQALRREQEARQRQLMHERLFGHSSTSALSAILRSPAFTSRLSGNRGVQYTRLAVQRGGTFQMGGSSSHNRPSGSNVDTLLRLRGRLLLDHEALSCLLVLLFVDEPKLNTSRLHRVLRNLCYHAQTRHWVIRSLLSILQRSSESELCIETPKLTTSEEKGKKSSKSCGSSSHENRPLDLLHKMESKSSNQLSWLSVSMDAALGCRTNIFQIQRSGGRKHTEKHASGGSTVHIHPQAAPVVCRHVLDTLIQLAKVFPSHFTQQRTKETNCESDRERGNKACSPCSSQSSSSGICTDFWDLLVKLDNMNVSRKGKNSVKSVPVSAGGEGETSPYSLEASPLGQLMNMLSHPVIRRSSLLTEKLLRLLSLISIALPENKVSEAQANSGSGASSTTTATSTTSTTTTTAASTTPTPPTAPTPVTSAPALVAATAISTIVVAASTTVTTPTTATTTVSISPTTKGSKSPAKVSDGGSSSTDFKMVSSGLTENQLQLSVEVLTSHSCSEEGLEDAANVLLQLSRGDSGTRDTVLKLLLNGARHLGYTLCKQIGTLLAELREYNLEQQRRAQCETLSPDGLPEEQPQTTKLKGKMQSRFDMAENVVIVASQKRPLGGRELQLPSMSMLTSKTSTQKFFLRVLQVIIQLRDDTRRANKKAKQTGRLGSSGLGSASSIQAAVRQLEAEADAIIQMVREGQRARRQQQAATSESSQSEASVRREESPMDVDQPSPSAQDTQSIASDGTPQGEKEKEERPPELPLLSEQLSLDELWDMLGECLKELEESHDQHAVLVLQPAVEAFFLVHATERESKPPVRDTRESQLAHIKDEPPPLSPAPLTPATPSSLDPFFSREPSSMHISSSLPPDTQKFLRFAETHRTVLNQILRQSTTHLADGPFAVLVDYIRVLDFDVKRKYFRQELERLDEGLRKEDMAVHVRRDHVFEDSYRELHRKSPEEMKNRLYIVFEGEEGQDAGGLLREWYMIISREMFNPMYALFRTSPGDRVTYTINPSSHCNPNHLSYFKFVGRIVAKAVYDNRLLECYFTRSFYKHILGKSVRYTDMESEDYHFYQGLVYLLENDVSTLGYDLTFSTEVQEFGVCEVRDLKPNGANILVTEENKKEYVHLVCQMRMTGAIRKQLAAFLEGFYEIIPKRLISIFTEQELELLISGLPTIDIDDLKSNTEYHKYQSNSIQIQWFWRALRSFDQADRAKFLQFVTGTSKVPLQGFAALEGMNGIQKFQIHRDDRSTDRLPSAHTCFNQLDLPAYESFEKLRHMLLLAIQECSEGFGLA

No constants are given. Whether binding was seen depends on the method and setting. In cells and extracts the contact can be indirect. Here binding means that the protein was enriched with, or labelled near, the bait; the list need not be complete. For part of these data: Where a sequence is shown, tags or fusion partners need not be part of it.

Experiment [1] deals with BirA*-tagged FBXO42 (F-Box Protein 42), full-length human (human) (UniProt Q6P3S6). Kind of experiment: proximity labelling; BioID: BirA*-tagged bait induced in HEK293 Flp-In T-REx cells, 50 uM biotin for 24 h, with or without 5 uM MG132; streptavidin-Sepharose purification and mass spectrometry.
In experiment [2] the target is T1, FLAG-tagged C16orf72/HAPSTR1, full-length human (human) (UniProt Q14CZ0).
T1 sequence: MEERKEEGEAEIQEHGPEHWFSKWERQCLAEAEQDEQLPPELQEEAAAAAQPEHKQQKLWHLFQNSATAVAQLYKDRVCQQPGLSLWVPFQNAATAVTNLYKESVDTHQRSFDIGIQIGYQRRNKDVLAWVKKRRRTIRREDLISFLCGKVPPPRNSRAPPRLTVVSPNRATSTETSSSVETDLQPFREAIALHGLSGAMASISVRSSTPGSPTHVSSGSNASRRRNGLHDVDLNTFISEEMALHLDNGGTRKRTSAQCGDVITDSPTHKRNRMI
As to the kind of experiment: affinity purification with mass spectrometry; FLAG-tagged bait in HEK293 Flp-In T-REx and U2OS Flp-In T-REx cells; anti-FLAG M2 magnetic beads, on-bead digest, SAINT filtering, biological triplicates.

BRCA2 (from UniProt P51587 1-3418): in experiment [1], the binding entry was “binds”.

Turning to HUWE1 (from UniProt Q7Z6Z7 1-4374), the binding result in experiment [1] and in experiment [2] was “binds” in each case.
